Reference: publication PMC4211326 (BioMed Research International, 2014)
Bridges are numbered along the chain shown (N, C = ends). The star is where a group is joined. Propanoyl(2-F) = CC(F)C(=O)*

Experiment: general procedure: Fmoc solid-phase peptide synthesis; TCP resin; H-Cys-2-ClTrt resin (loading 0.56 mmol/g); PyBOP/HOBt/DIPEA; HATU/DIPEA for second Trp coupling; HOAt/HATU
Conditions: whole synthesis, UV 220 nm, scale of the general procedure 100 mg resin

Substance	final HPLC purity
H-CRRETAWAC-OH (disulfide 1-9; SMILES C[C@@H]1NC(=O)[C@H](Cc2c[nH]c3ccccc23)NC(=O)[C@H](C)NC(=O)[C@H]([C@@H](C)O)NC(=O)[C@H](CCC(=O)O)NC(=O)[C@H](CCCNC(=N)N)NC(=O)[C@H](CCCNC(=N)N)NC(=O)[C@@H](N)CSSC[C@@H](C(=O)O)NC1=O)	>95%
{Propanoyl(2-F)}-CRRETAWAC-OH (disulfide 1-9; SMILES CC(F)C(=O)N[C@H]1CSSC[C@@H](C(=O)O)NC(=O)[C@H](C)NC(=O)[C@H](Cc2c[nH]c3ccccc23)NC(=O)[C@H](C)NC(=O)[C@H]([C@@H](C)O)NC(=O)[C@H](CCC(=O)O)NC(=O)[C@H](CCCNC(=N)N)NC(=O)[C@H](CCCNC(=N)N)NC1=O)	>99%
